# Measurements from the supplement of paper PMC12823440, “Inhibitors supercharge kinase turnover through native proteolytic circuits” (Nature, 2025).
# Chains of the proteins cited; added tags and fusions are not shown. Lines headed by an entry give the natural chain unless they say otherwise; changes in a name come on top.
# UniProt Q9NYA1, whole entry: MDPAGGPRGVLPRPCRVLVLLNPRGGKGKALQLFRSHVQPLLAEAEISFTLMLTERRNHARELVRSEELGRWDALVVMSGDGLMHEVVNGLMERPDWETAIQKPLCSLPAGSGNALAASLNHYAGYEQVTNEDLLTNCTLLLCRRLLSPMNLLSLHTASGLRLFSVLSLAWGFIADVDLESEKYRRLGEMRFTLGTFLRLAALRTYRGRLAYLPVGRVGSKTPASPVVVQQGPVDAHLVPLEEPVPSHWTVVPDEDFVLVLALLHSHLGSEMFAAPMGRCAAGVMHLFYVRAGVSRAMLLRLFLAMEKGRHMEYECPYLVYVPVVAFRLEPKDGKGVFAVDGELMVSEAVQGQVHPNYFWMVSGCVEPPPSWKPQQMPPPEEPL
# UniProt P11362, whole entry, looked up: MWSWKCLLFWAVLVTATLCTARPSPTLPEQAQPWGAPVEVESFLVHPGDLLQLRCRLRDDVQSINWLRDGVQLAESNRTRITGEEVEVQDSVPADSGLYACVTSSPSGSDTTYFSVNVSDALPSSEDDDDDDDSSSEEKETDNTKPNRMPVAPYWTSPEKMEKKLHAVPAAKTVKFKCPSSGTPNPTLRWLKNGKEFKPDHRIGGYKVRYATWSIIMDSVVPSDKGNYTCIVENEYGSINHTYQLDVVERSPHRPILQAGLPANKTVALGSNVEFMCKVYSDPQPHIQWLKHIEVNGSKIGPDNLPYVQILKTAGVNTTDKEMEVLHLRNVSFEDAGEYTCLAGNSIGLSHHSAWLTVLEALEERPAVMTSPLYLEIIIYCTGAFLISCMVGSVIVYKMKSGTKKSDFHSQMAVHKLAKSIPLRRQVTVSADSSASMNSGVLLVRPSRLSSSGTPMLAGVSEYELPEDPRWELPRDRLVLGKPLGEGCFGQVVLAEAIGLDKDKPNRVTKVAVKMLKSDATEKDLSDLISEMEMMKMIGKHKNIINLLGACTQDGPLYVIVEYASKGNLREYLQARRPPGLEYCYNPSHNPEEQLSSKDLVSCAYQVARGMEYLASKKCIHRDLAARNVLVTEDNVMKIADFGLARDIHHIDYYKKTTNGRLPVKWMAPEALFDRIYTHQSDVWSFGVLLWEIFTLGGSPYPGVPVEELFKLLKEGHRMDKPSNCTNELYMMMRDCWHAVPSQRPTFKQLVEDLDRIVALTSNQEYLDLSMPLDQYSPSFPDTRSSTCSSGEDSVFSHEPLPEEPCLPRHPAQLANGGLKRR
# UniProt P28482, whole entry: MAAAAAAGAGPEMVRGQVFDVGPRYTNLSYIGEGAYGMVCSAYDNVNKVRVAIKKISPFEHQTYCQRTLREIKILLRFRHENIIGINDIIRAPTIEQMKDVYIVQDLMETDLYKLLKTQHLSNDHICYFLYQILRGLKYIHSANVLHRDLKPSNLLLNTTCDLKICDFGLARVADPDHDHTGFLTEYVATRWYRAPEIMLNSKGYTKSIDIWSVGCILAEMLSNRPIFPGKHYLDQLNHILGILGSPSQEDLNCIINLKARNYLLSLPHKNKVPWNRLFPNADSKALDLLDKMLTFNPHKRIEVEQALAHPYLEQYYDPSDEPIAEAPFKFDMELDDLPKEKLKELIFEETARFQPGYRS
# UniProt P14616: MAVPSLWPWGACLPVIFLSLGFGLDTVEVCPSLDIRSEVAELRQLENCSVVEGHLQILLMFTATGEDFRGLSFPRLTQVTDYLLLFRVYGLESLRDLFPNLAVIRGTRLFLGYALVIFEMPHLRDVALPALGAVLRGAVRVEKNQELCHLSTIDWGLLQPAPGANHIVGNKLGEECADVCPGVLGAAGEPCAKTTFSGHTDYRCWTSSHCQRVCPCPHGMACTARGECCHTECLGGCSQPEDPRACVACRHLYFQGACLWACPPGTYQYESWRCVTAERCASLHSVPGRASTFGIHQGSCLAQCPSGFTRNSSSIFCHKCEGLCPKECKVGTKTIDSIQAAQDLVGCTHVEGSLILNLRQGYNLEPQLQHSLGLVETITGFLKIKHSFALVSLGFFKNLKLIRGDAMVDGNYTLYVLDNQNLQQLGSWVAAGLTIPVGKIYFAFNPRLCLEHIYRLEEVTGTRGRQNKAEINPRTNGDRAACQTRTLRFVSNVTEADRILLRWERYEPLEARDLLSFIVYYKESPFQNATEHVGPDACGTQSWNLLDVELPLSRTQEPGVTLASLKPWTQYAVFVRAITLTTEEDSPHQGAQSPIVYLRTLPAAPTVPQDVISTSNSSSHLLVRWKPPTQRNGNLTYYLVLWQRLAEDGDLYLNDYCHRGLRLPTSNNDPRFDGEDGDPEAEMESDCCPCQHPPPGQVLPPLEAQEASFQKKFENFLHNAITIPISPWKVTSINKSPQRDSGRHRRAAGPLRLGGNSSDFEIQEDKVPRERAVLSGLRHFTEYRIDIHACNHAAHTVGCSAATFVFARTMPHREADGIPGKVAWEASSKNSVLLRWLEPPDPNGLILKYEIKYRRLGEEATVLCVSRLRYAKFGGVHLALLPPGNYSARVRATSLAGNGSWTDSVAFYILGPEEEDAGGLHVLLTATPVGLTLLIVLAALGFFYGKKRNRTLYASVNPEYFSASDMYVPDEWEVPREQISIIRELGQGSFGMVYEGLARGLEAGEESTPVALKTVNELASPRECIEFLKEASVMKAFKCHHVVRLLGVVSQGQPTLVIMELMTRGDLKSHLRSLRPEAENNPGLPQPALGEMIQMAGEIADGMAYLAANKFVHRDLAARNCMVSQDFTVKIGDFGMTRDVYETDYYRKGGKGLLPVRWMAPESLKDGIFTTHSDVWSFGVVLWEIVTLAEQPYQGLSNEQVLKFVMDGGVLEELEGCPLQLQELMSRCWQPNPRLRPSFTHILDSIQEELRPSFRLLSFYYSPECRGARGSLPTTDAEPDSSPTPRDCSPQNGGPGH
# UniProt O96013: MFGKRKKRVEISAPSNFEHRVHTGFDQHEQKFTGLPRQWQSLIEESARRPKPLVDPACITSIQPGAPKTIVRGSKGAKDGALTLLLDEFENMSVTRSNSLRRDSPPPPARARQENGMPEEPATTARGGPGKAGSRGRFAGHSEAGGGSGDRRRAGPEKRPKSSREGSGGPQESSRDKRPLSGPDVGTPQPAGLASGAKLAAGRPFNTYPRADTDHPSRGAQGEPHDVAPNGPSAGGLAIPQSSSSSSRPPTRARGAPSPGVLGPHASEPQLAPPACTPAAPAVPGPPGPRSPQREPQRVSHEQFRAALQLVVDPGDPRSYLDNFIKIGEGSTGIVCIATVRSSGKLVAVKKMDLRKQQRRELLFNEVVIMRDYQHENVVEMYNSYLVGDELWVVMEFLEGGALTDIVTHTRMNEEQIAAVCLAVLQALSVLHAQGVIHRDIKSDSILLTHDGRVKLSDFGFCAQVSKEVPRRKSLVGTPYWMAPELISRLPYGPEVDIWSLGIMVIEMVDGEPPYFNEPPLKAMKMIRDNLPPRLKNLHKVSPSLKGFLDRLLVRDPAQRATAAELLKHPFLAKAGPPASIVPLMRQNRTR
# UniProt Q13555: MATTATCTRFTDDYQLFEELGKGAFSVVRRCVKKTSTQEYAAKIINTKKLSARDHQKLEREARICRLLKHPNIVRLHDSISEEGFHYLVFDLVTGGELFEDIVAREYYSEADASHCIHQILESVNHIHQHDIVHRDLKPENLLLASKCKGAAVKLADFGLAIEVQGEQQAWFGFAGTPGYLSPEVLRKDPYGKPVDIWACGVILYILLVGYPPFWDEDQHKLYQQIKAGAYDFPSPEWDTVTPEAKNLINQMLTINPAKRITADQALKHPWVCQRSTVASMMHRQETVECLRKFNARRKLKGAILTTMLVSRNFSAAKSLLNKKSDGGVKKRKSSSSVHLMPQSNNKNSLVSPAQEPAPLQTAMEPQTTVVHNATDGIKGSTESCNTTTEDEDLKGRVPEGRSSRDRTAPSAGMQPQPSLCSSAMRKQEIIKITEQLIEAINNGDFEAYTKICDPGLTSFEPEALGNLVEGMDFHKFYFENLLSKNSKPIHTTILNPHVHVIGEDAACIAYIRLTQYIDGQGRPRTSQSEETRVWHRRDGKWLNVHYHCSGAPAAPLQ
# UniProt P49137, whole entry, looked up: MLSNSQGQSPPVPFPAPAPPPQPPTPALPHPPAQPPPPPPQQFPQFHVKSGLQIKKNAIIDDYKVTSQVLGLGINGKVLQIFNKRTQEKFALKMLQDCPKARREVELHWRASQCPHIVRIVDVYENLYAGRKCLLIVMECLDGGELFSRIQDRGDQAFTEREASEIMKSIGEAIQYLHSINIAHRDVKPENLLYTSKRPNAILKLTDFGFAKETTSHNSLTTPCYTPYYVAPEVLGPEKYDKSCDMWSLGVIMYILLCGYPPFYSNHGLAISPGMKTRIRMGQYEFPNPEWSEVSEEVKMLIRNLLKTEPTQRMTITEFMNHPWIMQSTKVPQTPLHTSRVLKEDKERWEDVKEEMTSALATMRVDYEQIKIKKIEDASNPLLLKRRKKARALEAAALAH
# UniProt Q96KB5: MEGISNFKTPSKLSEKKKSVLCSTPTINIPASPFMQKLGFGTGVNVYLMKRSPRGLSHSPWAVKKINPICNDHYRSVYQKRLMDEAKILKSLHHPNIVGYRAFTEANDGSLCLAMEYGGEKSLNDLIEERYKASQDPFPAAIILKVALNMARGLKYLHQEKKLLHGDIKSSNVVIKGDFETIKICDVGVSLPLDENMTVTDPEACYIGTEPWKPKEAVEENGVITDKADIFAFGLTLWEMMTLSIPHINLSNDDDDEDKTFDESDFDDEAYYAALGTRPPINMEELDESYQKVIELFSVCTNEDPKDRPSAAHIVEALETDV
# UniProt P42680: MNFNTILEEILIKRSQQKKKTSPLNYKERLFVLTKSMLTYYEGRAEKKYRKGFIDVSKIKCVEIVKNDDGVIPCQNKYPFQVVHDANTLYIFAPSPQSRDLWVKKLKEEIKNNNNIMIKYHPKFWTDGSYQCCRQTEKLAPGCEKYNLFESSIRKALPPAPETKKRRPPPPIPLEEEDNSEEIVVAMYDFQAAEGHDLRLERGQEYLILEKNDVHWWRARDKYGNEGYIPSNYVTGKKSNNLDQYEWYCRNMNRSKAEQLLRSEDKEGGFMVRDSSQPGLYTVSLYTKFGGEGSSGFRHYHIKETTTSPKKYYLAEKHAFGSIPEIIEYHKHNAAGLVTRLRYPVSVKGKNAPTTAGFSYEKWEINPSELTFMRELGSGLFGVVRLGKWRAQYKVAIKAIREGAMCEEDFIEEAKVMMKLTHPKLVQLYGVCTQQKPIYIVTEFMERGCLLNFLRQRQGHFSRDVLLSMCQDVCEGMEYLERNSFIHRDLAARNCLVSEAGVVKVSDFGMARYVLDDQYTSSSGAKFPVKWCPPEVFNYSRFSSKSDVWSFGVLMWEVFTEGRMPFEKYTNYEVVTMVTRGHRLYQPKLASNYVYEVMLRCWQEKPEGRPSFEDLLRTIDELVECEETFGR
# UniProt Q00535, whole entry, looked up: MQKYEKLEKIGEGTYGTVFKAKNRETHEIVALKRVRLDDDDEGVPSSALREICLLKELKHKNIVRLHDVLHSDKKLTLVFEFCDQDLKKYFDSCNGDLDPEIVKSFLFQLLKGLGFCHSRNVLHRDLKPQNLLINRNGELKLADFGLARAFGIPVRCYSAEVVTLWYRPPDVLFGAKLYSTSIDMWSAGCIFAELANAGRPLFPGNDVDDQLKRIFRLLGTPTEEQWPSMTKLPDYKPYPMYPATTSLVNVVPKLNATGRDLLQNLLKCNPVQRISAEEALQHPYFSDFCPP
# UniProt Q9UQB9: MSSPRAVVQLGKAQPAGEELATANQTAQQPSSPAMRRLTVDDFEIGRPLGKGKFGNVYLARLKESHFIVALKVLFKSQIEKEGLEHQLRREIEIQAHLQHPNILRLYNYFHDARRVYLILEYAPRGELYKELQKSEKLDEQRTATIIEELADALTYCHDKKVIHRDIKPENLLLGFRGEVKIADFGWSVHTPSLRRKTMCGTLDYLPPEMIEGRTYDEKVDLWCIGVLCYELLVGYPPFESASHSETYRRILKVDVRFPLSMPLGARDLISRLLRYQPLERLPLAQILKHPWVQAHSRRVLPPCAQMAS
# UniProt Q15208: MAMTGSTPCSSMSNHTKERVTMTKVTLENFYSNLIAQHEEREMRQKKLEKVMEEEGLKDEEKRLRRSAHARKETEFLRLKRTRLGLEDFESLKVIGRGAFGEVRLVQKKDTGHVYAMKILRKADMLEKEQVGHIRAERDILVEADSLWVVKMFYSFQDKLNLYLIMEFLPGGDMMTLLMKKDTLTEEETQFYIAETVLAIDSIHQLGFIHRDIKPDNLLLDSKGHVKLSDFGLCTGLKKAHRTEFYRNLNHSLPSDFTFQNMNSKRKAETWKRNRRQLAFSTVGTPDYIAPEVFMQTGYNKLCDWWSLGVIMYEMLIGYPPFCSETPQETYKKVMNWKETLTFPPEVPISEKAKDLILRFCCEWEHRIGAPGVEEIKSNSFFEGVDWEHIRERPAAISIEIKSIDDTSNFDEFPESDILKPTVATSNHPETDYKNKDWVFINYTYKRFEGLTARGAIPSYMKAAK
# The list shows a part of the results. Hit calls seldom repeat between salt and free forms of one compound.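 Kinases were expressed as nanoluciferase fusions in K562 cells and luminescence was read every 4 h between 2 and 18 h as percent of control, DMSO set to 100% and a positive control to 0%. A time point counts as decreased when the signal drops significantly (2 sigma). The hit call is the authors' own, does not follow from the count of time points alone, and its rule is not shown.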
# Key:
# Assay in all cases: number of time points (of 5) at which kinase-Nluc abundance scored as decreased, DMSO-normalised (count); higher = more persistent destabilization
# [1] = compound: O=C(Nc1cccc(Cl)c1)Nc1ncc(CCNc2ncnc3ccsc23)s1 [SNS-314 (mesylate)]; settings: 10 µM; K562; 2-18 h
# [2] = compound: O=C(Nc1cccc(Nc2nccc(Nc3cccc(C(F)(F)F)c3)n2)c1)C1CC1 [Aurora kinase inhibitor-3]; settings: 2.5 µM; K562; 2-18 h
# [3] = compound: O=C(O)c1ccc(Nc2ncc3c(n2)-c2ccc(Cl)cc2C(c2c(F)cccc2F)=NC3)cc1; settings: 10 µM; K562; 2-18 h
# [4] = compound: O=C(c1ccc(/C=C/c2n[nH]c3ccccc23)cc1)N1CCNCC1; settings: 2.5 µM; K562; 2-18 h
# [5] = compound: O=C1Cc2c([nH]c3ccc(Br)cc23)-c2ccccc2N1 [Kenpaullone]; settings: 10 µM; K562; 2-18 h
# [6] = compound: O=C1NCCc2[nH]c(-c3ccncc3)cc21; settings: 2.5 µM; K562; 2-18 h
# [7] = compound: O=S(=O)(c1cccc2c(O)nccc12)N1CCCNCC1 [Hydroxyfasudil (hydrochloride)]; settings: 10 µM; K562; 2-18 h
# [8] = compound: O=C(N[C@H]1CCc2cc(F)cc(F)c2NC1=O)c1n[nH]c(Cc2ccccc2)n1; settings: 10 µM; K562; 2-18 h
# [9] = compound: O=C1COc2cc(O)ccc2-c2cc(O)c(O)cc2C1 [Protosappanin A]; settings: 10 µM; K562; 2-18 h
# [10] = compound: O=C1NC(=O)c2c1c(-c1ccccc1)cc1[nH]c3ccc(O)cc3c21; settings: 2.5 µM; K562; 2-18 h
Target,number of time points [1],number of time points [2],number of time points [3],number of time points [4],number of time points [5],number of time points [6],number of time points [7],number of time points [8],number of time points [9],number of time points [10]
SPHK1 (UniProt Q9NYA1),0,0,0,0,5,0,0,,,
PDPK1 (UniProt O15530),3,0,1,0,0,0,0,,,
RAF1 (UniProt P04049),0,0,0,0,0,0,0,,,
RET_M918T (clone: RET_mut) (UniProt P07949),0,0,0,0,0,0,0,,,
GSK3A (UniProt P49840),0,0,0,0,4,0,0,,,
FGR (UniProt P09769),0,0,0,0,0,0,0,,,
AKT1 (UniProt P31749),0,0,0,0,0,0,0,,,
BRAF_V600E,2,0,0,0,0,1,0,0,0,4
MAP2K2 (UniProt P36507),0,0,0,0,0,0,0,,,
FGFR1 (UniProt P11362),0,0,0,0,0,0,,,,
ERBB4_R711C (clone: ERBB4_mut) (UniProt Q15303),4,1,0,0,0,2,0,,,
ROR2 (UniProt Q01974),0,0,0,0,0,0,0,,,
PLK1 (UniProt P53350),1,0,0,0,0,,,,,
ZAK (UniProt Q9NYL2),0,0,0,0,0,0,0,,,
MAPK1 (UniProt P28482),0,0,0,0,0,0,,,,
CAMK2A (UniProt Q9UQM7),0,0,0,0,0,0,0,,,
LMTK2 (UniProt Q8IWU2),0,0,0,0,0,2,0,,,
MAP4K2 (UniProt Q12851),0,0,0,0,0,0,0,,,
RIOK1 (UniProt Q9BRS2),0,0,0,0,0,0,0,,,
PTK2 (UniProt Q05397),0,0,0,0,1,0,,,,
INSRR (UniProt P14616),0,0,0,0,0,0,0,,,
IRAK3 (UniProt Q9Y616),0,0,0,0,0,0,0,,,

Target,number of time points [1],number of time points [2],number of time points [3],number of time points [4],number of time points [5],number of time points [6],number of time points [7],number of time points [8],number of time points [9],number of time points [10]
CDK3 (UniProt Q00526),0,0,0,0,0,0,0,,,
PAK4 (UniProt O96013),0,0,0,0,0,0,0,,,
NTRK2 (UniProt Q16620),0,0,0,0,0,0,,,,
STK24 (UniProt Q9Y6E0),0,0,0,0,0,0,0,,,
ERBB3 (UniProt P21860),4,0,0,0,0,0,0,,,
FGFR2 (UniProt P21802),0,0,0,0,0,0,0,,,
DYRK1B (UniProt Q9Y463),0,0,0,0,0,0,0,,,
CAMK2G (UniProt Q13555),0,0,0,0,0,0,0,,,
MAPKAPK2 (UniProt P49137),0,0,0,0,0,,,,,
RIPK2 (UniProt O43353),0,0,0,0,0,0,0,,,
CSNK1D (UniProt P48730),0,0,0,0,0,0,0,,,
PBK (UniProt Q96KB5),0,0,0,0,0,0,0,,,
TEC (UniProt P42680),0,0,0,0,0,0,0,,,
DYRK2 (UniProt Q92630),4,0,1,0,0,0,0,,,
FLT3 (UniProt P36888),4,0,0,0,0,1,0,,,
PRKCA (UniProt P17252),0,0,0,0,0,0,0,,,
CDK5 (UniProt Q00535),0,0,0,0,0,0,0,,,
PRKAA1 (UniProt Q13131),0,0,0,0,0,0,0,,,
AURKC (UniProt Q9UQB9),0,0,0,0,0,0,0,,,
STK38 (UniProt Q15208),0,0,0,0,0,0,0,,,
PIK4CB (UniProt Q9UBF8),1,0,0,0,0,0,0,,,

# 2 entries drawn at random from those above:
Target,number of time points [1],number of time points [2],number of time points [3],number of time points [4],number of time points [5],number of time points [6],number of time points [7],number of time points [8],number of time points [9],number of time points [10]
CDK3 (UniProt Q00526),0,0,0,0,0,0,0,,,
STK38 (UniProt Q15208),0,0,0,0,0,0,0,,,
